Measured values from publication PMC10435583.
No constants are given. Whether binding was seen depends on the method and setting. Binding seen in cells or lysates may run through a third protein. Some binding calls cover weakened binding; strength is not graded here. For part of these data: Sequences can lack the tags named with a protein. One block for each molecule: values may come before it.

Sequences of proteins named here, by UniProt entry; tags and fusion partners are left off.
UniProt Q7Z333: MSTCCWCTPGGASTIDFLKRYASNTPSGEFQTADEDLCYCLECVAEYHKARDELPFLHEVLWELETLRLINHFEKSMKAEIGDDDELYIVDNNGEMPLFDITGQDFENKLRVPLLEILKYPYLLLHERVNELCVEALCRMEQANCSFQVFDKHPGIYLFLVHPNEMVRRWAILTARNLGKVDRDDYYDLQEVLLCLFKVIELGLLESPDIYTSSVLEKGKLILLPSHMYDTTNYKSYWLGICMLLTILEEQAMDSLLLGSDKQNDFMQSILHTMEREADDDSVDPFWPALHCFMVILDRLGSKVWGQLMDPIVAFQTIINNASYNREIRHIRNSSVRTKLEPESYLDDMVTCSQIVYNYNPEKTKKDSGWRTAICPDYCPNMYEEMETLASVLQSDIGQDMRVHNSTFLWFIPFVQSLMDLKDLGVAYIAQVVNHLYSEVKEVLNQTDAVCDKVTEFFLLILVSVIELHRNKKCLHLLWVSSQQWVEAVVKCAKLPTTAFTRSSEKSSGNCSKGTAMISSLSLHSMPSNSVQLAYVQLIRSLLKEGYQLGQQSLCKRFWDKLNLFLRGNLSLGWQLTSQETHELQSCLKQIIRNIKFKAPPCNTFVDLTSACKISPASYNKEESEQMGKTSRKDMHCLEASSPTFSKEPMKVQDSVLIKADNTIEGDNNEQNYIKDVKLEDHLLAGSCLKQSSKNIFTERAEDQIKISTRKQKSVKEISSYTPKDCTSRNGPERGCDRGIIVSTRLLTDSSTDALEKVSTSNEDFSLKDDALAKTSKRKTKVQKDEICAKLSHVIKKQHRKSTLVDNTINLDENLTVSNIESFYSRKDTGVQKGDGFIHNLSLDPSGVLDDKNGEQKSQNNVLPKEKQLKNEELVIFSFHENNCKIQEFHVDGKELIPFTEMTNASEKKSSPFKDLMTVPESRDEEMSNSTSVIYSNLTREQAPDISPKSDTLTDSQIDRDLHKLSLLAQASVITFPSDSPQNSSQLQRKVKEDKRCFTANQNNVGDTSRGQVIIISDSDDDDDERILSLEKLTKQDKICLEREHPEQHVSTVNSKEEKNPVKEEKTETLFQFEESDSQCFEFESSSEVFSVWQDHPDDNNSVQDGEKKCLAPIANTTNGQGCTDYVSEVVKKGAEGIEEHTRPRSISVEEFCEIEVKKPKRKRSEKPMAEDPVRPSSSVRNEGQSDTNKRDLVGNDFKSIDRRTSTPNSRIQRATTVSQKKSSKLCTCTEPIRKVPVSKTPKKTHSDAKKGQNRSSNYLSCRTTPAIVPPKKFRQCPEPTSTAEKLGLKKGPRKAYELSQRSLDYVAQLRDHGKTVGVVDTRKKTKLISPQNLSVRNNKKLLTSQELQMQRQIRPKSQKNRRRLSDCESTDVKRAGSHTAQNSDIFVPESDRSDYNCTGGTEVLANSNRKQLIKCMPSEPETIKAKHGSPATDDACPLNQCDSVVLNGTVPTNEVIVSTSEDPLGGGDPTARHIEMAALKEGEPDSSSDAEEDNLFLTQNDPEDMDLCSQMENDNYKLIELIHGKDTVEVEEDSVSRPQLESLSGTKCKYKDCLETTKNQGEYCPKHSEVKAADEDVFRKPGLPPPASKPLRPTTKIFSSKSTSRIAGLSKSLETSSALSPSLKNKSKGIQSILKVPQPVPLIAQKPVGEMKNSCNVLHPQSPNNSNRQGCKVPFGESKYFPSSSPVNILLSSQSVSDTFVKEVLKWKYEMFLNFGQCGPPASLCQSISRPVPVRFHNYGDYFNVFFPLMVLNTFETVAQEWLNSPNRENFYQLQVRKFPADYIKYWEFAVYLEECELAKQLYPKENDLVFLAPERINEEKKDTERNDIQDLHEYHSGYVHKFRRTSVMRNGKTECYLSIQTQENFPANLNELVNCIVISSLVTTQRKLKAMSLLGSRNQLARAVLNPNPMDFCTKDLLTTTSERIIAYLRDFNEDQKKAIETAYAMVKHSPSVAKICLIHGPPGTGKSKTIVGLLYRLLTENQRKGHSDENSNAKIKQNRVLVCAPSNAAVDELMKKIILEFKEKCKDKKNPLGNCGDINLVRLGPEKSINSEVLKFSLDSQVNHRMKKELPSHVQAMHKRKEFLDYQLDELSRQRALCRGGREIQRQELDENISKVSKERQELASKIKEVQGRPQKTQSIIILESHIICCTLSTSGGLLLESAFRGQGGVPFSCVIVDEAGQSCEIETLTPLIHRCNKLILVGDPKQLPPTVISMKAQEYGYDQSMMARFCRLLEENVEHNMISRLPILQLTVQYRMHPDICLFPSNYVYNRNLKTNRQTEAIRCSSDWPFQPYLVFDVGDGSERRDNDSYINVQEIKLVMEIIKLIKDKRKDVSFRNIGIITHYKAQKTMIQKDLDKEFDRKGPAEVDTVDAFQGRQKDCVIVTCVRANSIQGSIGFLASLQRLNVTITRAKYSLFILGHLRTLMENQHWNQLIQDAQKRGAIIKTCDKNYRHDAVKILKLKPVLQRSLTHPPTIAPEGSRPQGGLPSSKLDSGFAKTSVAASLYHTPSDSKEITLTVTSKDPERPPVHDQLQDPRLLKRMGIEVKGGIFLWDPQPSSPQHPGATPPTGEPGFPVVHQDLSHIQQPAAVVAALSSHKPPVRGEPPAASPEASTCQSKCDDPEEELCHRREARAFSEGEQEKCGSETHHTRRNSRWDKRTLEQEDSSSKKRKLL
UniProt P49736: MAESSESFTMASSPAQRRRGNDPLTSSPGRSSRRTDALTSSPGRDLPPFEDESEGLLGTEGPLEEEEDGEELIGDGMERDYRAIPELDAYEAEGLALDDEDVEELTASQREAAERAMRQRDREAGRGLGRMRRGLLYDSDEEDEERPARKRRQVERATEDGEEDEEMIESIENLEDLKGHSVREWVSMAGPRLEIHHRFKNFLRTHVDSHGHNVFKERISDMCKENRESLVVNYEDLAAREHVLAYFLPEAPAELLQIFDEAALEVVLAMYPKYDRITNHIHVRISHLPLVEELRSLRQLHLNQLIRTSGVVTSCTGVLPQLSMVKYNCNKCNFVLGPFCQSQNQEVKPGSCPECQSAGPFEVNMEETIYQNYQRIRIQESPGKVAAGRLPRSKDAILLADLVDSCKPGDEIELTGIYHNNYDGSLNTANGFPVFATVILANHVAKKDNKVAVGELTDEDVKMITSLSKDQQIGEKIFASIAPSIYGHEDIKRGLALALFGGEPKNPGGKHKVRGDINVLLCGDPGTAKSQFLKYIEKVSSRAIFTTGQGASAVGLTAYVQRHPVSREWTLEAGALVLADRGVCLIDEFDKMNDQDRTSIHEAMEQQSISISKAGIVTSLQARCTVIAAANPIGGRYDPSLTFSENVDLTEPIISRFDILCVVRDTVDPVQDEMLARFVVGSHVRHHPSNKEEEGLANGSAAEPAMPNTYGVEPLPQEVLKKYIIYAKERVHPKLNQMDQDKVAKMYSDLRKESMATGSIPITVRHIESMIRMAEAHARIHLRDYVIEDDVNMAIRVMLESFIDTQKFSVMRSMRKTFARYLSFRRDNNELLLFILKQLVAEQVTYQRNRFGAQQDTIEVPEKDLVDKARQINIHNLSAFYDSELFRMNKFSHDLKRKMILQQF

Experiments:
[1] = biological target: T1, HA-Flag-C16orf72 (UniProt Q14CZ0); experiment: co-IP; c16orf72-HA-Flag immunoprecipitated with anti-HA beads from whole-cell extract of c16orf72Δ U2OS cells, untreated or 2 mM HU for 2 hours; Triton X-100 lysis buffer (100 mM NaCl, 50 mM Tris-HCl pH 8.0) with benzonase; western blot
T1 sequence: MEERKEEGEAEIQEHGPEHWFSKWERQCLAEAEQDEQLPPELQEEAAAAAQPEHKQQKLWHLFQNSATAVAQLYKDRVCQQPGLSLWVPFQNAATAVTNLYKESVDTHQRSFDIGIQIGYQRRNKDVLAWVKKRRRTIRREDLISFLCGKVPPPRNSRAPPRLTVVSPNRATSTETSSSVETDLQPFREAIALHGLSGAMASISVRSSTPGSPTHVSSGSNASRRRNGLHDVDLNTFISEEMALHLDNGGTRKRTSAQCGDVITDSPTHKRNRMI

[2] = biological target: Senataxin (human (endogenous in U2OS)) (UniProt Q7Z333); experiment: co-IP; Senataxin immunoprecipitated; C16orf72 detected in the immunoprecipitate
[3] = biological target: MCM2 (UniProt P49736); experiment: proximity ligation; Duolink proximity ligation assay on methanol-fixed cells with antibodies to C16orf72 and MCM2

binding [1]: binds
Molecule: Senataxin (from UniProt Q7Z333 1-2677)

binding [3]: no binding
B1: C16orf72 (protein, UniProt Q14CZ0 1-275)
chain: T1 sequence
binding [2]: binds
